Assay results as given in PMC4860845.
Like-named read-outs stand apart in the source and are kept apart here. Results are given in words; binding and its absence hold for the method and conditions named. In cells and extracts the contact can be indirect. Some results given as binding are weak or reduced against the parent protein; the word gives no strength. Values belong to the molecule of their own block, whether it stands above or below them.

By UniProt entry, the sequences of proteins in these tests, tags left out. Residues count along the entry.
UniProt A2AKX3: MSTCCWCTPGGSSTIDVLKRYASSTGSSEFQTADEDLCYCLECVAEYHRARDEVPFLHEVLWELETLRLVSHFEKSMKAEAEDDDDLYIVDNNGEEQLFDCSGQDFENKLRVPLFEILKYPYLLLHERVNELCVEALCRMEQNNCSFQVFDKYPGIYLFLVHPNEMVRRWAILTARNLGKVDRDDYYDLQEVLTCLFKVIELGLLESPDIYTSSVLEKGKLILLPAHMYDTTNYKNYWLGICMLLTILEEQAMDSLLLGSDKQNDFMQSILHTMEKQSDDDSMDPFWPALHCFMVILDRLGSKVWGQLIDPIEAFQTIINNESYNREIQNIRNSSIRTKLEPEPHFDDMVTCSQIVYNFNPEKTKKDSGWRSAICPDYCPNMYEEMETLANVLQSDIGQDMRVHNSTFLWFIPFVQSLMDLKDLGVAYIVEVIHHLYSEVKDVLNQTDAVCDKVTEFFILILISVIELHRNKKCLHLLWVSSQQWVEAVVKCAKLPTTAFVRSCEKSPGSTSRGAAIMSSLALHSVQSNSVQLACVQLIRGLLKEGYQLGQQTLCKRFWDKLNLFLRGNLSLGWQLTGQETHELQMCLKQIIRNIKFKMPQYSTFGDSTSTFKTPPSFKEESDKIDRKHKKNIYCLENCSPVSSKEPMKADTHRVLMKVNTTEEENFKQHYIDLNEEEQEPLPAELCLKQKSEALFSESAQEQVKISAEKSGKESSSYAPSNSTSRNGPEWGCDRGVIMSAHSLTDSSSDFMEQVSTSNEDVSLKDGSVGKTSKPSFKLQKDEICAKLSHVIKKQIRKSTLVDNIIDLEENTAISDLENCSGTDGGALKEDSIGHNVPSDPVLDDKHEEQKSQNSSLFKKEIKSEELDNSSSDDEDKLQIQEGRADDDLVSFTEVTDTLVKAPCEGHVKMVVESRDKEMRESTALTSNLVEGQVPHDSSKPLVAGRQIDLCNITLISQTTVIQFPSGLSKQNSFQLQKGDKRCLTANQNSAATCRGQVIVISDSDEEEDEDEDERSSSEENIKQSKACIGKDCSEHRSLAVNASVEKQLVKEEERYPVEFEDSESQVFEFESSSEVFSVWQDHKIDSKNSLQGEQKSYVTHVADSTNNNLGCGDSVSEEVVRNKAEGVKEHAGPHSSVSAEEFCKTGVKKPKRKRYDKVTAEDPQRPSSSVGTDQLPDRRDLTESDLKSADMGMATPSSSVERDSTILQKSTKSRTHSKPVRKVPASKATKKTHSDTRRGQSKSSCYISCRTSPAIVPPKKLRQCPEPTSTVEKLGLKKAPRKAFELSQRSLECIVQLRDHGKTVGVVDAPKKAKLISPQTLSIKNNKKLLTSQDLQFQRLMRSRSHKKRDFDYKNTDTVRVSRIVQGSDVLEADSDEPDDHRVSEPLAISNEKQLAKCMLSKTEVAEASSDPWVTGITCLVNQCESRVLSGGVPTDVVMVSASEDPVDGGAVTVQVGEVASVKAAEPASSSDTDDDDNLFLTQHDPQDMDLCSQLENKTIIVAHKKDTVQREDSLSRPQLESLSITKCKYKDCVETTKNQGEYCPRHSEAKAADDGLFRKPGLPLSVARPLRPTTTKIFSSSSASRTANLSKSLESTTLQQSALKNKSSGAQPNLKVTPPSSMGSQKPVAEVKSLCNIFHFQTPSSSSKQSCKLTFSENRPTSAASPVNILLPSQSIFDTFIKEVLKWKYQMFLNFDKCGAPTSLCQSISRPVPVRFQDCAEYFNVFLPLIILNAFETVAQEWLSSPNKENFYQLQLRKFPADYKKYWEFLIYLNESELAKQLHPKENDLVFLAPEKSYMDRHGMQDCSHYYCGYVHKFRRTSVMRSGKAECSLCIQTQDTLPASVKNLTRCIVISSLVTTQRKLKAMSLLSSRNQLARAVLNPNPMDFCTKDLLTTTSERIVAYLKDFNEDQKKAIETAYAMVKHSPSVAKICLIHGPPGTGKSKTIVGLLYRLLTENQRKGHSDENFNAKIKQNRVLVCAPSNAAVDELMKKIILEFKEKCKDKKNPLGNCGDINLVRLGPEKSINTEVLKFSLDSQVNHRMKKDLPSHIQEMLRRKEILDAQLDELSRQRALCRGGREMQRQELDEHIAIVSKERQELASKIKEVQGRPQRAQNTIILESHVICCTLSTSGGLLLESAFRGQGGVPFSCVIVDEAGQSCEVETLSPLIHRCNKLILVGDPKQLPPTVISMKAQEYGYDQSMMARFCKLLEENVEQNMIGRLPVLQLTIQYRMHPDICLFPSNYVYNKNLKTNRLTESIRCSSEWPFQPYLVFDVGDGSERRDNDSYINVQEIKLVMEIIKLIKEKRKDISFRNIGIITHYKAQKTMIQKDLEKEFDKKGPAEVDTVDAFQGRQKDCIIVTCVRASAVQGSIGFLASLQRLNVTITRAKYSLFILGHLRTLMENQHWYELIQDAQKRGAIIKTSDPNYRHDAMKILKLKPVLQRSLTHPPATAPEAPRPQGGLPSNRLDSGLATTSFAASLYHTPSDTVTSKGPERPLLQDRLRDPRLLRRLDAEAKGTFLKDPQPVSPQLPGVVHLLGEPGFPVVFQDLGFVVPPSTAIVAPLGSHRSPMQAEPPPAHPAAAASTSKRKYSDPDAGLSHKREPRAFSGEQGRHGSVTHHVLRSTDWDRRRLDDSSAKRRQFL
UniProt P63166, residues 1-97: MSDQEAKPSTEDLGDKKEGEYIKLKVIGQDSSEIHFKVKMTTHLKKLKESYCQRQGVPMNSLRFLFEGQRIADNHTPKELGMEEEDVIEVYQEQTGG
UniProt Q6PDQ2: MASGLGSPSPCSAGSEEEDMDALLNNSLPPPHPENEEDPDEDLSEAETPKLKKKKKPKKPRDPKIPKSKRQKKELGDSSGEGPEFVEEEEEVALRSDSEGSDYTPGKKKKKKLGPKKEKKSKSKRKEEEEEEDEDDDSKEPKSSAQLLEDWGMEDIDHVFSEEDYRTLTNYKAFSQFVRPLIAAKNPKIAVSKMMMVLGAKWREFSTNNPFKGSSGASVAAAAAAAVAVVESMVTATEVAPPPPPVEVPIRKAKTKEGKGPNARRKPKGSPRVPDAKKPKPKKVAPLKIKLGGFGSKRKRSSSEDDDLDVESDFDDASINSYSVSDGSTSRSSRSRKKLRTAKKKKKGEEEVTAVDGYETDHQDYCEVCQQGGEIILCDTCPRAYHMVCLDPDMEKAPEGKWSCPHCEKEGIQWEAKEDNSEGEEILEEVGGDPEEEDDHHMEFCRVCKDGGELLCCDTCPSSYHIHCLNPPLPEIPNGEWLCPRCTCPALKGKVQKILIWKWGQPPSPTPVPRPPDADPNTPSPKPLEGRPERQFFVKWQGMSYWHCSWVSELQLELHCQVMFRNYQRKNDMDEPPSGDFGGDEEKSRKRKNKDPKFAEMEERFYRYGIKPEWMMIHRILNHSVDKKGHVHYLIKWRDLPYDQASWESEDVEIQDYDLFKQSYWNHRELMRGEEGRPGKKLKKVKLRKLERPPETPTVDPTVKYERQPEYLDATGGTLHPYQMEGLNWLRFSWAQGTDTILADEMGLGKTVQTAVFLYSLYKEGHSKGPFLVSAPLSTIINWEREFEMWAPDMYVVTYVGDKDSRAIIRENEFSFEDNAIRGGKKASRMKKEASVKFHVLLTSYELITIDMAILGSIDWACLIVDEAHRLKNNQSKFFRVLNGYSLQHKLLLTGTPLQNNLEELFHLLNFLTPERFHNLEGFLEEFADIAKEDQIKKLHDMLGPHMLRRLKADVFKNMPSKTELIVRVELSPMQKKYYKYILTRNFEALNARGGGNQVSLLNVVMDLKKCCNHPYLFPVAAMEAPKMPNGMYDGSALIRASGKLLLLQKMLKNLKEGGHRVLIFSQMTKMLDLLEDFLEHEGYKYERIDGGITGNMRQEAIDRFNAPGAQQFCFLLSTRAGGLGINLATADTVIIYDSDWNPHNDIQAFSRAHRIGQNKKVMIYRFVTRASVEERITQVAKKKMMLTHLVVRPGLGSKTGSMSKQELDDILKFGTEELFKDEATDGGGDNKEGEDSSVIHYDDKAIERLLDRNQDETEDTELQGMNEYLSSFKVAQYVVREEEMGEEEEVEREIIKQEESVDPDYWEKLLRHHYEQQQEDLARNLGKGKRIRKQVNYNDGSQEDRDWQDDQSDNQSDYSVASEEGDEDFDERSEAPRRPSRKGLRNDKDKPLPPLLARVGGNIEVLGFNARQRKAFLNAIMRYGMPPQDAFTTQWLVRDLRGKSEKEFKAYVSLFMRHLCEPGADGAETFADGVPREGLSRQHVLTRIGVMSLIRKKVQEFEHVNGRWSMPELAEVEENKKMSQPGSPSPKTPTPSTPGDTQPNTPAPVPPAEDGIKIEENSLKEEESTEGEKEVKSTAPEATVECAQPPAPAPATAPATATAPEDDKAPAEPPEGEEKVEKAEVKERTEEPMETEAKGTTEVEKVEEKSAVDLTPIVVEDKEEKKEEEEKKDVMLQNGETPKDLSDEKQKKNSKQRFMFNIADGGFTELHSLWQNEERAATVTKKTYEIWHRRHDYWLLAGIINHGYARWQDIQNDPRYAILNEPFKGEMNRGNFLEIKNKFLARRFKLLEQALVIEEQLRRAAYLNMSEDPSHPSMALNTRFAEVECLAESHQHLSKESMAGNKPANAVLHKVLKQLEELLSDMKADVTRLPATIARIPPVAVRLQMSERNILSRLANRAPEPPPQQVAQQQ

Columns and labels:
[1] = target: senataxin (mouse (endogenous in testes)) (UniProt A2AKX3); test: proximity ligation; Duolink PLA on fixed Setx+/+ mouse spermatocyte spreads (pachytene stage), endogenous proteins, sheep anti-Setx with rabbit anti-SUMO-1 or rabbit anti-CHD4; control without primary antibody
[2] = target: Small ubiquitin-like modifier 1 (SUMO-1) (mouse (endogenous in testes)) (UniProt P63166); test: co-IP; endogenous proteins from testes extracts of 35-day-old Setx+/+ and Setx-/- mice; lysis buffer 50 mM Tris-HCl pH 7.4, 150 mM NaCl, 0.2% Triton X-100, 0.3% NP-40, with NEM; antibody overnight at 4 °C, protein A beads; immunoblot; nonspecific IgG as control
[3] = target: Small ubiquitin-like modifier 1 (SUMO-1) (mouse (endogenous in testes)) (UniProt P63166); test: as above; remark: listed apart in the source

Molecule: Chromodomain helicase DNA-binding protein 4 (from UniProt Q6PDQ2 1-1915)
binding [1]: binds

binding [2]: binds
Molecule: senataxin (from UniProt A2AKX3 1-2646)

binding [3]: binds
B1: ataxia telangiectasia and Rad3-related protein-interacting partner (protein, UniProt Q8BMG1 1-785)
chain: MAGTPAPNSHRKQSGGLEPFPGLSRSIENPPSKRARSFSETTVPDPEDPFGEHAEFTADDLEELDILASQALSQCPVAPRNLSSAHKVRRLDGLPNSPIRKSREDIPVKDNFELEVLQIQYKELKEKLKAMEEEILIKNGEIKILRDSLRQTESVLEEQKRSHFLLEQEKTQALSEKEKEFSRKLQSLQSELQFKDAEMNELRTKSQSNGRTNKPAAPSVSHVSPRKGSSVVLKSEACSPHVGKTTFPTKESFSANTPLFHPCQTEAGHRFLVGQEVSDNKNHSLGGSLMKQDVQQRILADGWMQRKDAQGSILINLLLKQPLVPGSSLGLCHLLSSCPEVPTGTLLQPPGLSTLPGTSGLRTISSSDGPFSPSALREAQNLAFTGLNLVARTESSHDGDMAGRRVFPLHQLPGAVHLLPLVQFFVGLHCQALQDLAPAKKSGVPGDSATHTSCMSSGVEASPEDSIHGLESFSVASLSVLQNLVCHSGAVVCLLLSGMGTEAAAREGNLVQTCADTTSASREDAHDQDQHPLLKMLLQLMASSSAASGHFQASVLGLCLKVLVKLAENASSDLLPRFSCVFPVLPQCLGSALPLPCVLLAVELLSVLLDHDSLAWQLCSHPEGCLLLRLYMYITSRPDRTASETQWLQLEQEVVWLLAKLSVQSPAPAGIGSDCHCNVEAVRALTVMLHRQWLTVRRAGGPRTHQQKQTIRCLRDTVLLLHSLSQKDKLFTVHCVEVLHQYDQVMPGVSMLIRALPDVTDCEEAALDDLCAAETDLEDSEMDCN
